No constants are given. Whether binding was seen depends on the method and setting. Binding seen in cells or lysates may run through a third protein. Some entries that bind do so weakly or less than the wild type. For part of these data: Where a sequence is shown, tags or fusion partners need not be part of it.
Experiments:
Assay in all cases: pull-down; GST fusion protein (or GST alone) bound to glutathione-Sepharose beads; ~1 pmol 35S-labelled in vitro translated partner, partially purified by ammonium sulfate precipitation; binding buffer 20 mM Tris-HCl pH 7.5, 125 mM KOAc, 0.5 mM EDTA, 1 mM DTT, 0.1% Tween20, 12.5% glycerol; 30°C 15 min, then 30 min at room temperature; only the target purified
[1] = biological target: T1, GST-PPM1J(17-506), wild type (human) (UniProt Q5JR12)
T1 sequence: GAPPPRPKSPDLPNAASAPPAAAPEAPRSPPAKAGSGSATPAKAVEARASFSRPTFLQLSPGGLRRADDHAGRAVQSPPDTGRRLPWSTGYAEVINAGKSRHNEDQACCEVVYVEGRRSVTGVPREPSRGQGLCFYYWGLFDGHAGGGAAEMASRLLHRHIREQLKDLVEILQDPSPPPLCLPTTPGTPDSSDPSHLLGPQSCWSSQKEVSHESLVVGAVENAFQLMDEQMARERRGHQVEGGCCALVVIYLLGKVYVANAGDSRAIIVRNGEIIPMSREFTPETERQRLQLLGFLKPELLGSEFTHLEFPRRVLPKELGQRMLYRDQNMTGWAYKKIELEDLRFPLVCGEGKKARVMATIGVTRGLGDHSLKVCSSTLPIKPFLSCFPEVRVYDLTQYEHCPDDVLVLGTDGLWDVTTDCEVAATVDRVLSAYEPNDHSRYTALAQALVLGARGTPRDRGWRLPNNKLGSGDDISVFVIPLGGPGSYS

Sequences of proteins named here, by UniProt entry; tags and fusion partners are left off. A change or cut given only in a name is not applied to a line headed by its entry. A line that says so, or that is headed by a name, gives the form on record, which may keep a tag or linker. Residues count along the entry.
GST-JNK3 (P53779-2, form named): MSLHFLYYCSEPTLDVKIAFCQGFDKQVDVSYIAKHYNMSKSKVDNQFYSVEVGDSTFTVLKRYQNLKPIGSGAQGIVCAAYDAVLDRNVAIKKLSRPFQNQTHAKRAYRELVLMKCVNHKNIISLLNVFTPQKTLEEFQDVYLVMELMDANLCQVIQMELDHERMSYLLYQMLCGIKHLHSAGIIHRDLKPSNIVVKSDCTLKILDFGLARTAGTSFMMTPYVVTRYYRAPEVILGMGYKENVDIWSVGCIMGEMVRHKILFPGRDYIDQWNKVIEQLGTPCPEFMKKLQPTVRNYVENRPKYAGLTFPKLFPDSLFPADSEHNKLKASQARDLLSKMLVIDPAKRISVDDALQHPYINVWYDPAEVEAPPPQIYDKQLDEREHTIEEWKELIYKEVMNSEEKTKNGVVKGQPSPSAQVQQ
GST-JNK1 (P45983-2, form named): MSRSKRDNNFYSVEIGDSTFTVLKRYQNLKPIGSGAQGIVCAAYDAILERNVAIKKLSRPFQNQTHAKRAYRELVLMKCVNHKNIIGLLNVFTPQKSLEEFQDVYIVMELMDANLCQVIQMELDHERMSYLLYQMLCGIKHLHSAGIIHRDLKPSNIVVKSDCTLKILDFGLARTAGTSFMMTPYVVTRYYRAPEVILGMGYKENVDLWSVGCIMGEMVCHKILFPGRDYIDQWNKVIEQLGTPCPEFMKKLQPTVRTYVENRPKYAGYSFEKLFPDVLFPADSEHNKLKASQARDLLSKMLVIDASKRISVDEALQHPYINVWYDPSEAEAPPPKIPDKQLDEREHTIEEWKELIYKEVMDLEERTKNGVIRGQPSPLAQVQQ
UniProt P10071, residues 280-478: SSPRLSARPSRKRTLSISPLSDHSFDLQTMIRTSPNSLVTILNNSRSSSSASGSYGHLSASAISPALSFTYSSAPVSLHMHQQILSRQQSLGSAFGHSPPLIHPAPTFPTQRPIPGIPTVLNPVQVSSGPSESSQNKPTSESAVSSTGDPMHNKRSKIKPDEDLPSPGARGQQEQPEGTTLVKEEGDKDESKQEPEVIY
UniProt Q96FI4: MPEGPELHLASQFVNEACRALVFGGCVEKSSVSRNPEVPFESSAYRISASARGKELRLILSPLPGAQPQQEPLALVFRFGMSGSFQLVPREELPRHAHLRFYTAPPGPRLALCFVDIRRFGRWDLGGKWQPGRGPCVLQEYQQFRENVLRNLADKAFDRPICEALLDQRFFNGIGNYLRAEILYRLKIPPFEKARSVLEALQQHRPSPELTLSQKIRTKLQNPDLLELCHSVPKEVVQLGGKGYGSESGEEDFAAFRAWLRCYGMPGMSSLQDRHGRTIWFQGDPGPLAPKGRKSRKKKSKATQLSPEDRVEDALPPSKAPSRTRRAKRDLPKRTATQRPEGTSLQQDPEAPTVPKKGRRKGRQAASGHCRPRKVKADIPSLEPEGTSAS

[2] = biological target: GST-JNK3 (human) (UniProt P53779)
[3] = biological target: GST-JNK1 (human) (UniProt P45983)
[4] = biological target: GST-JNK2 (human) (UniProt P45984)

For “35S-radiolabeled JNK3 (from UniProt P53779-2 1-422) (enzyme)”, the binding [1] was “binds”.

In the case of “Gli3(280-478), wild type (from UniProt P10071 280-478) (domain or fragment)”, the binding [2] is reported as “binds”, the binding [3] is reported as “binds” and the binding [4] is reported as “binds”.

For “35S-radiolabeled JNK2 (from UniProt P45984-1 1-424) (enzyme)”, the binding [1] was “binds”.

With “Nei endonuclease VIII-like 1 (Neil1), full length (from UniProt Q96FI4 1-390)” the binding [3] was “binds” and the binding [4] was “no binding”.

With “35S-radiolabeled JNK1 (from UniProt P45983-2 1-384) (enzyme)” the binding [1] was “binds”.

For “Heterogeneous nuclear ribonucleoprotein K (hnRNP-K), full length, wild type (from UniProt P61978-2 1-464)”, the binding [3] was “binds”.

Reference: paper PMC2928751
